Data published in publication PMC11176256.
Positions count from the first letter of the chain named. These are yes or no findings as the source states them, for the method shown. In cells and extracts the contact can be indirect. Some results given as binding are weak or reduced against the parent protein; the word gives no strength. Where a sequence is shown, tags or fusion partners need not be part of it.

Columns and labels:
Assay in all cases: proximity ligation; THP-1 cells stably transduced with UNC93B1-V5 WT or variant (pTrip-SFFV-GFP-2A), cultured with PMA; Duolink PLA with rabbit anti-V5 and mouse anti-TLR8 antibodies; untreated or R848 0.5 µg/ml for 30 min; methanol-fixed
[1] = molecular target: T1, V5-tagged UNC93B1 L330R (pTrip-SFFV-GFP-2A construct, in THP-1 cells) (human) (UniProt Q9H1C4)
T1 sequence: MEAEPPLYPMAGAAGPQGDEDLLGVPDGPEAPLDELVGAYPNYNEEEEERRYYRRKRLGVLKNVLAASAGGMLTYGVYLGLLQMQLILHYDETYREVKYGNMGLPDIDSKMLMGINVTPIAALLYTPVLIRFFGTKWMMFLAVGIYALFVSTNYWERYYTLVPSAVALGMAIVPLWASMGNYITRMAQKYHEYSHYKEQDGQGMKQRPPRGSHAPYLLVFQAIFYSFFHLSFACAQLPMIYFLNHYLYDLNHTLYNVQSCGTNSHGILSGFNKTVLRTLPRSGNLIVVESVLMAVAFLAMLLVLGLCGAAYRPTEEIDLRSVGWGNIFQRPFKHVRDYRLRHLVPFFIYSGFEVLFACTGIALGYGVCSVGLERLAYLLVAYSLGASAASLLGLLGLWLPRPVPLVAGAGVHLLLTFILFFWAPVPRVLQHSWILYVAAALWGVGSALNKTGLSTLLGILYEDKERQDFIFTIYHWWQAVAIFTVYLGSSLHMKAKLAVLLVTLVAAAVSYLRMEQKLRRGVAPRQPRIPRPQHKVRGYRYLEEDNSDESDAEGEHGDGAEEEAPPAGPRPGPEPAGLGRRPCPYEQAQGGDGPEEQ

[2] = molecular target: T2, V5-tagged human WT UNC93B1 (pTrip-SFFV-GFP-2A construct, in THP-1 cells) (human) (UniProt Q9H1C4)
T2 sequence: T1 sequence with R330L

[3] = molecular target: T3, V5-tagged UNC93B1 R466S (pTrip-SFFV-GFP-2A construct, in THP-1 cells) (human) (UniProt Q9H1C4)
T3 sequence: T1 sequence with R330L, R466S

[4] = molecular target: T4, V5-tagged UNC93B1 G325C (pTrip-SFFV-GFP-2A construct, in THP-1 cells) (human) (UniProt Q9H1C4)
T4 sequence: T1 sequence with G325C, R330L

[5] = molecular target: T5, V5-tagged UNC93B1 R525P (pTrip-SFFV-GFP-2A construct, in THP-1 cells) (human) (UniProt Q9H1C4)
T5 sequence: T1 sequence with R330L, R525P

Measured: binding

B1: TLR8 (endogenous in THP-1 cells) (receptor, UniProt Q9NR97 27-1041)
chain: EENFSRSYPCDEKKQNDSVIAECSNRRLQEVPQTVGKYVTELDLSDNFITHITNESFQGLQNLTKINLNHNPNVQHQNGNPGIQSNGLNITDGAFLNLKNLRELLLEDNQLPQIPSGLPESLTELSLIQNNIYNITKEGISRLINLKNLYLAWNCYFNKVCEKTNIEDGVFETLTNLELLSLSFNSLSHVPPKLPSSLRKLFLSNTQIKYISEEDFKGLINLTLLDLSGNCPRCFNAPFPCVPCDGGASINIDRFAFQNLTQLRYLNLSSTSLRKINAAWFKNMPHLKVLDLEFNYLVGEIASGAFLTMLPRLEILDLSFNYIKGSYPQHINISRNFSKLLSLRALHLRGYVFQELREDDFQPLMQLPNLSTINLGINFIKQIDFKLFQNFSNLEIIYLSENRISPLVKDTRQSYANSSSFQRHIRKRRSTDFEFDPHSNFYHFTRPLIKPQCAAYGKALDLSLNSIFFIGPNQFENLPDIACLNLSANSNAQVLSGTEFSAIPHVKYLDLTNNRLDFDNASALTELSDLEVLDLSYNSHYFRIAGVTHHLEFIQNFTNLKVLNLSHNNIYTLTDKYNLESKSLVELVFSGNRLDILWNDDDNRYISIFKGLKNLTRLDLSLNRLKHIPNEAFLNLPASLTELHINDNMLKFFNWTLLQQFPRLELLDLRGNKLLFLTDSLSDFTSSLRTLLLSHNRISHLPSGFLSEVSSLKHLDLSSNLLKTINKSALETKTTTKLSMLELHGNPFECTCDIGDFRRWMDEHLNVKIPRLVDVICASPGDQRGKSIVSLELTTCVSDVTAVILFFFTFFITTMVMLAALAHHLFYWDVWFIYNVCLAKVKGYRSLSTSQTFYDAYISYDTKDASVTDWVINELRYHLEESRDKNVLLCLEERDWDPGLAIIDNLMQSINQSKKTVFVLTKKYAKSWNFKTAFYLALQRLMDENMDVIIFILLEPVLQHSQYLRLRQRICKSSILQWPDNPKAEGLFWQTLRNVVLTENDSRYNNMYVDSIKQY
binds: all assays above
